The values below come from article PMC7702011.

No constants are given. Whether binding was seen depends on the method and setting. Binding seen in cells or lysates may run through a third protein. Binding calls can cover weak binding; strength is not graded here.

For this test, the target named is Np65-EGFP. The experiment in a line: co-IP; HeLa cells co-transfected with Np65-EGFP and MANF vectors, treated with or without thapsigargin or LPS; lysates immunoprecipitated with anti-GFP antibody, immunoblot. In general terms: Immunoblotting shows a protein as a band on a membrane.

B1: MANF expressed from a vector in HeLa cells (protein, UniProt P55145 25-182)
chain: LRPGDCEVCISYLGRFYQDLKDRDVTFSPATIENELIKFCREARGKENRLCYYIGATDDAATKIINEVSKPLAHHIPVEKICEKLKKKDSQICELKYDKQIDLSTVDLKKLRVKELKKILDDWGETCKGCAEKSDYIRKINELMPKYAPKAASARTDL
With B1, the binding entry is on record as “binds”.
